This is one part of the list. Hit calls seldom repeat between salt and free forms of one compound.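 Kinases, fused to nanoluciferase, were expressed in K562 cells; luminescence was measured every 4 h from 2 to 18 h as percent of control (DMSO = 100%, positive control = 0%). A time point is decreased if signal falls significantly (2 sigma). Hits were called by the authors by a rule that is not shown; the count of time points alone does not decide it.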
What was measured:
Assay in all cases: number of time points (of 5) at which kinase-Nluc abundance scored as decreased, DMSO-normalised (count); higher = more persistent destabilization
Conditions in all cases: K562; 2-18 h
[1] = molecular target: EGFR_L861Q (UniProt P00533)
[2] = molecular target: EGFR_T790M (UniProt P00533)
[3] = molecular target: EPHA2 (UniProt P29317)
[4] = molecular target: ERBB3 (UniProt P21860)
[5] = molecular target: ERBB4_R711C (clone: ERBB4_mut) (UniProt Q15303)
[6] = molecular target: ERN1 (UniProt O75460)
[7] = molecular target: FGFR1 (UniProt P11362)
[8] = molecular target: FGFR2 (UniProt P21802)
[9] = molecular target: FGFR3 (UniProt P22607)
[10] = molecular target: FGR (UniProt P09769)
[11] = molecular target: FLT3 (UniProt P36888)
[12] = molecular target: FYN (UniProt P06241)
[13] = molecular target: GSK3A (UniProt P49840)
[14] = molecular target: HER2 (UniProt P04626)
[15] = molecular target: INSRR (UniProt P14616)
[16] = molecular target: IRAK3 (UniProt Q9Y616)
[17] = molecular target: JAK1 (UniProt P23458)
[18] = molecular target: LCK (UniProt P06239)
[19] = molecular target: LIMK1 (UniProt P53667)
[20] = molecular target: LIMK2 (UniProt P53671)

Sequences of proteins named here, by UniProt entry; tags and fusion partners are left off. A change or cut given only in a name is not applied to a line headed by its entry.
UniProt P29317, whole entry: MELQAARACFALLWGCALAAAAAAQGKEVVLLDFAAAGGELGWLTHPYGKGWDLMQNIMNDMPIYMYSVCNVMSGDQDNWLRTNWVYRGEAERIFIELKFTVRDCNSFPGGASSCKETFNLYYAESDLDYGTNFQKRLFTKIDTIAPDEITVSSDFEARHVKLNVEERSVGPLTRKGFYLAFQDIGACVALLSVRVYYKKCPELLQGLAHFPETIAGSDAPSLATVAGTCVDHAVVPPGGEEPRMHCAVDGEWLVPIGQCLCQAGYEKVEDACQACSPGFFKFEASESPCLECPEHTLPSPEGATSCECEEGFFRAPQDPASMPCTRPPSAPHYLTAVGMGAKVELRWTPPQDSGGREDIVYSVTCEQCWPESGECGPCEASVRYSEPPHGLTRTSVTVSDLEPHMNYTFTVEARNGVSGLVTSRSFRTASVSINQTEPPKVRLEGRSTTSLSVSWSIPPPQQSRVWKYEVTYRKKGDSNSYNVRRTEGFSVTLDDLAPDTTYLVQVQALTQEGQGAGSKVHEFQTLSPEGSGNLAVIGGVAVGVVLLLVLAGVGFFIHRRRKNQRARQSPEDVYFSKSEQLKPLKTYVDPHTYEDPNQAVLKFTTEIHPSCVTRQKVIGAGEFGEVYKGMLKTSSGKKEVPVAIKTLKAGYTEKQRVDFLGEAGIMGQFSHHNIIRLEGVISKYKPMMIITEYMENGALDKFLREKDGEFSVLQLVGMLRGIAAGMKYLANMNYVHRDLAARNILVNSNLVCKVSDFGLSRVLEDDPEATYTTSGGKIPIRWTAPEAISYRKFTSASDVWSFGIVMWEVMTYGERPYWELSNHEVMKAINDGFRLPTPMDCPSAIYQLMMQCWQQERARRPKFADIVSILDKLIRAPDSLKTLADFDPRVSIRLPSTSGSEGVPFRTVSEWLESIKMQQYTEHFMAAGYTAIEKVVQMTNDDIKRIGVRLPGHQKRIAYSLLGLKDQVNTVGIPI
UniProt P21860, whole entry: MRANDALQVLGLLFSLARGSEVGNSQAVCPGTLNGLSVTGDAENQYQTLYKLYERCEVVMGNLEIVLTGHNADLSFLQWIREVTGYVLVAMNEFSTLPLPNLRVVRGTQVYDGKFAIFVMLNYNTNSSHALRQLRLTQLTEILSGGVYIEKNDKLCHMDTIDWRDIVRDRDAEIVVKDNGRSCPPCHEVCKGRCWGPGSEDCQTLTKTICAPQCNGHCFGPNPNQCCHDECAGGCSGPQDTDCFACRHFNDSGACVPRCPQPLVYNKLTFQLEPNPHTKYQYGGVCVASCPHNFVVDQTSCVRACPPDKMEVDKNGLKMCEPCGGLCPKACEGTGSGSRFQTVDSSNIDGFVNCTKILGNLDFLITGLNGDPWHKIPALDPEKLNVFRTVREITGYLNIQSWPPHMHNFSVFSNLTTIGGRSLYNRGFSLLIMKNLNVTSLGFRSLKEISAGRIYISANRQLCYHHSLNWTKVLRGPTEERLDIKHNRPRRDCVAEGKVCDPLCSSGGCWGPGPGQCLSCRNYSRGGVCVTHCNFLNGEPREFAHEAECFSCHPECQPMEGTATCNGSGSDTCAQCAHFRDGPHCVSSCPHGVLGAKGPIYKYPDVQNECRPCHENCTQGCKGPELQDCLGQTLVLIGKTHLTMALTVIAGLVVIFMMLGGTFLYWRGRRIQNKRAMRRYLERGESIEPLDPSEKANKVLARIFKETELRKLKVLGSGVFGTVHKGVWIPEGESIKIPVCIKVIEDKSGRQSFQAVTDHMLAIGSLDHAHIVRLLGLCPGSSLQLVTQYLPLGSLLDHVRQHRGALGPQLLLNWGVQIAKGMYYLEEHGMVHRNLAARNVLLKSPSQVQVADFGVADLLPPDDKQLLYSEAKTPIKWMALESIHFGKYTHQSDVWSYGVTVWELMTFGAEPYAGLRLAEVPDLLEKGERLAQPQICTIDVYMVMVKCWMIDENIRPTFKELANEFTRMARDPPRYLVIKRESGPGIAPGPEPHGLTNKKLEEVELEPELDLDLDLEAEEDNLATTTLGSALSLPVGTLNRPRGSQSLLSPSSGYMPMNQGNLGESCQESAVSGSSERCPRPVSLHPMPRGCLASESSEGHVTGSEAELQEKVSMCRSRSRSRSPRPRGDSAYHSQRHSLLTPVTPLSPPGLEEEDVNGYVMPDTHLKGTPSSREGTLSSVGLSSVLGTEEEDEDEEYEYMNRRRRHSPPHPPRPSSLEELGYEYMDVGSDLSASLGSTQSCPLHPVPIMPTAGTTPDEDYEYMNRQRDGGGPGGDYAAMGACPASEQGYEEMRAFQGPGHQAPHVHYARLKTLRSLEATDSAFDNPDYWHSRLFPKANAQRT
UniProt O75460: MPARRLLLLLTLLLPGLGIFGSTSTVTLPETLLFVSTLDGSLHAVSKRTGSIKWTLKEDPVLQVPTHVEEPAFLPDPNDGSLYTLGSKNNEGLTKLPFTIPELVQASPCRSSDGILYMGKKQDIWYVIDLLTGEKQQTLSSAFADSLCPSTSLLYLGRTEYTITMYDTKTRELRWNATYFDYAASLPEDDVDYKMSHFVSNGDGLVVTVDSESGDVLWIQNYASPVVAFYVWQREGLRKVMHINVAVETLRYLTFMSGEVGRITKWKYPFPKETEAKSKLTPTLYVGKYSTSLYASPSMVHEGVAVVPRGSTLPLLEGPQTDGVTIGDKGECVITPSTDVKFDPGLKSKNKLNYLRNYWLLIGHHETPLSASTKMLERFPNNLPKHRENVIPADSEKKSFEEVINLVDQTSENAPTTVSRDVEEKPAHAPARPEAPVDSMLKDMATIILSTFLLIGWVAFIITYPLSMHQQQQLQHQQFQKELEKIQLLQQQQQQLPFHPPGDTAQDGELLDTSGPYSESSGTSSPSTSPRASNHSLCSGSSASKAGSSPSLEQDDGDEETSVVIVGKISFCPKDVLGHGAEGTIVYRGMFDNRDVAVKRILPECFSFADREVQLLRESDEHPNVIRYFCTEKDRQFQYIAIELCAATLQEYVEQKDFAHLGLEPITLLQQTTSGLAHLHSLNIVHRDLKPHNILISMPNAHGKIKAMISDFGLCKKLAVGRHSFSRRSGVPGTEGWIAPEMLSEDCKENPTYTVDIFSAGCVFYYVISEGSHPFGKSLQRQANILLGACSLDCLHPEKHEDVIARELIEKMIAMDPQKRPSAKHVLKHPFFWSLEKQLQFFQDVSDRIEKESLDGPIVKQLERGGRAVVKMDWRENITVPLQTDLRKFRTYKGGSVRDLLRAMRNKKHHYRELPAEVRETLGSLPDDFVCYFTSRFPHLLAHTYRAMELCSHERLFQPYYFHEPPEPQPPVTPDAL
UniProt P11362, whole entry, looked up: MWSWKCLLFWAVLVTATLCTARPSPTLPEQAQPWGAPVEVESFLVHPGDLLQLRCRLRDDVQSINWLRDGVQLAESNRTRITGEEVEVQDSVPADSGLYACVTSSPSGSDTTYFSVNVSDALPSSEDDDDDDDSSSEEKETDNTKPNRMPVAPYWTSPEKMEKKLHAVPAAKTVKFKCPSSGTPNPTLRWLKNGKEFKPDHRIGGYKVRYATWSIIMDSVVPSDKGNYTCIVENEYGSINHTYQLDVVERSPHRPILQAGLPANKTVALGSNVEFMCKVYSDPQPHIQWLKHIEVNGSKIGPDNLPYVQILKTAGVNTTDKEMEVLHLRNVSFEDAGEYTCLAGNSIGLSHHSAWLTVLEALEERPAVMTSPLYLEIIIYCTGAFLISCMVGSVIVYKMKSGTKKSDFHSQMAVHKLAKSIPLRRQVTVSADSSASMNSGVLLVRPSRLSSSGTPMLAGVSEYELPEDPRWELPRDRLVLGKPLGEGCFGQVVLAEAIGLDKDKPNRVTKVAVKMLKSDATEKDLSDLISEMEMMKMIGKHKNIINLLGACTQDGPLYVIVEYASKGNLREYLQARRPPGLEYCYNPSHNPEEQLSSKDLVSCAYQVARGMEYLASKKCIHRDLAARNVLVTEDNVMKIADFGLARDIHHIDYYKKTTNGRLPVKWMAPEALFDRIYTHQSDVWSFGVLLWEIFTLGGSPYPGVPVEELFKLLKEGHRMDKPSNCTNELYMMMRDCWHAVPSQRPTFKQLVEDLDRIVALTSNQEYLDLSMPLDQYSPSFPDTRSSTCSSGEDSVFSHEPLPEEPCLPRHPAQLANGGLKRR
UniProt P21802, whole entry, looked up: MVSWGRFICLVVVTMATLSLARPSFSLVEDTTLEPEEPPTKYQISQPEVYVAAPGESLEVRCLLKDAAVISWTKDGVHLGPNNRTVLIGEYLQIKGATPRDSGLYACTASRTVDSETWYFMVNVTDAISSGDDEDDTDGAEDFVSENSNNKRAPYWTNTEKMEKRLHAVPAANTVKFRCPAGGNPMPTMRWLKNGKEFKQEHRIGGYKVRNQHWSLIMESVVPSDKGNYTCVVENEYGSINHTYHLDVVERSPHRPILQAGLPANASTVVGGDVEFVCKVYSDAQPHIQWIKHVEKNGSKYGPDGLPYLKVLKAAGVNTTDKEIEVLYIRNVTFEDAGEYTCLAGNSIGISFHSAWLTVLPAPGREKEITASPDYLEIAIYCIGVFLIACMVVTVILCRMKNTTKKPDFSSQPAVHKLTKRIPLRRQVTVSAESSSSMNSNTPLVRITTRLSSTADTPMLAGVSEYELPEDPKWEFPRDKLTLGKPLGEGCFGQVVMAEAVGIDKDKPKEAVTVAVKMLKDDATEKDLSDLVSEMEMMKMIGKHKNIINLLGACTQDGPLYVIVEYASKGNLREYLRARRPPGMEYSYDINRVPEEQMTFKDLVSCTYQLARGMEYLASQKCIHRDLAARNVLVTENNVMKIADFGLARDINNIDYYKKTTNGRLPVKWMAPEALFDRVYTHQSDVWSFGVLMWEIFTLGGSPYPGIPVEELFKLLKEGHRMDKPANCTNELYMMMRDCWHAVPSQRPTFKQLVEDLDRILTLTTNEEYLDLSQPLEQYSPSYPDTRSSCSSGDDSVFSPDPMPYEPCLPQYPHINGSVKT
UniProt P36888, whole entry: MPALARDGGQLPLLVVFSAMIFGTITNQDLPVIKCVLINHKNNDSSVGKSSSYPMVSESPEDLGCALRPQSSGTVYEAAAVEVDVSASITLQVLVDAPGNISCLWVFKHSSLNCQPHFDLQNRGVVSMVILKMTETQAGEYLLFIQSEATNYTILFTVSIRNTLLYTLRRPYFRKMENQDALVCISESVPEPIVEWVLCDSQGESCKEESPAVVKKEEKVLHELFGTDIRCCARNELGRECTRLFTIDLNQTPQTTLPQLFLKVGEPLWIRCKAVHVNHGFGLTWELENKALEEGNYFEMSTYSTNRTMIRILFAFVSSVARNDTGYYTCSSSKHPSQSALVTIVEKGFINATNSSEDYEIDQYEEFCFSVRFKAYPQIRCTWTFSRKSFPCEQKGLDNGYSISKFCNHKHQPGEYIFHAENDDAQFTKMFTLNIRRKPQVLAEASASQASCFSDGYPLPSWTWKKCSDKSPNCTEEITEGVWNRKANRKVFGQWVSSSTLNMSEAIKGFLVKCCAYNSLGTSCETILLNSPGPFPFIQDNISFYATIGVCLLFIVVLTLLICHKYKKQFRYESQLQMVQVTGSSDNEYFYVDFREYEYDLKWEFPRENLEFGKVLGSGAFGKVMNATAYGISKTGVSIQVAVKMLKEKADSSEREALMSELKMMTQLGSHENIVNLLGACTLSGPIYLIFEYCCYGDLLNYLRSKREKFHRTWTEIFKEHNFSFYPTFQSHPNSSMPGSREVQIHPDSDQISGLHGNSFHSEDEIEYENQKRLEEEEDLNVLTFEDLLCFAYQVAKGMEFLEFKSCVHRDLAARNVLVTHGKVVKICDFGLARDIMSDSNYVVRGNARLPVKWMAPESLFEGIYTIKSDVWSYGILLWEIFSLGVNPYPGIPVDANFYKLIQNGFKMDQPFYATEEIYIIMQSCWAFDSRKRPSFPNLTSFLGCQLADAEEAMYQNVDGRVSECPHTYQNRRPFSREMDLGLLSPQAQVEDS
UniProt P49840: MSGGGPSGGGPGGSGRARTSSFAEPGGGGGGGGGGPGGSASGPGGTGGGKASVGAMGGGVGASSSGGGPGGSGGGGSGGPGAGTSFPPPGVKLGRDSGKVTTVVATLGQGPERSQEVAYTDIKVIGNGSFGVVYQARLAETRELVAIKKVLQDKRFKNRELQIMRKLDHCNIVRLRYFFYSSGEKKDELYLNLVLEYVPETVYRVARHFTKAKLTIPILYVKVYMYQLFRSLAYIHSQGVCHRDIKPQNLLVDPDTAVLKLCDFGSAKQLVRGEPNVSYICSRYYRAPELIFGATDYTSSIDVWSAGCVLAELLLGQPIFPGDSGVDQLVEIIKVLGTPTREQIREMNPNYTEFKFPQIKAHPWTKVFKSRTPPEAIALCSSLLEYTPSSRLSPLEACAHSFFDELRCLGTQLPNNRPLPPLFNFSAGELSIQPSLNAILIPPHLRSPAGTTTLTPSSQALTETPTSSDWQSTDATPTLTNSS

Measured: number of time points

Cc1ncc(-c2ccnc(Nc3ccc(S(C)(=O)=O)cc3)n2)n1C(C)C (2.5 µM)
3: [5] | [11]
2: [14] | [16] | [17]
1: [1] | [8] | [13]
0: all other assays above

O=C(Nc1ccc(-c2ccnc(Nc3ccc(N4CCOCC4)cc3)n2)cc1)C1CCCN1 (stereo not drawn) (10 µM)
0: all assays above

NC(=O)c1ccc(-c2nc(-c3ccccn3)c(-c3ccc4c(c3)OCO4)[nH]2)cc1 (10 µM)
0: all assays above

Cn1nc(C(C)(C)C)cc1NC(=O)Nc1ccc(Oc2ccncc2)cc1 (10 µM)
2: [15] | [17]
3: [1] | [4] | [5] | [16]
1: [11] | [19]
0: all other assays above

CC[C@H](CO)Nc1nc(NCc2ccccc2)c2ncn(C(C)C)c2n1 [Seliciclib] (10 µM)
0: all assays above

COc1ccc(F)c(F)c1C(=O)c1cnc(NC2CCN(S(C)(=O)=O)CC2)nc1N (2.5 µM)
1: [17]
3: [5] | [6] | [8] | [11] | [12] | [16]
4: [4]
2: [1] | [13] | [14] | [15]
0: all other assays above

CCCS(=O)(=O)Nc1ccc(F)c(C(=O)c2c[nH]c3ncc(Cl)cc23)c1F (10 µM)
4: [17]
2: [4]
0: all other assays above

Cc1cc(CS(=O)(=O)c2ccccc2)cc(OCc2ccc(CN3CCC[C@@H]3CO)cc2)c1 [PF-543 (Citrate)] (10 µM)
0: all assays above

Cc1c(NC(=O)c2cc3c(s2)CCCC3)cccc1-c1cn(C)c(=O)c(Nc2ccc([C@@H]3C(=O)N(C)CCN3C)cc2)n1 (10 µM)
0: all assays above

CN(C)Cc1ccc(-c2cnn3c(-c4cccc(NC(=O)c5cccc(C(F)(F)F)c5)c4)ccnc23)cc1 (2.5 µM)
5: [14]
0: all other assays above

CCCn1cnc2c(NCc3ccccc3)nc(NC(CC)CO)nc21 (stereo not drawn) [Ca2+ channel agonist 1] (2.5 µM)
0: all assays above

CN1CCN(c2ccc(Nc3cc(-c4cccc(-n5ccc6cc(C7CC7)cc(F)c6c5=O)c4CO)cn(C)c3=O)nc2)CC1 (2.5 µM)
0: all assays above

COc1cc2ncn(-c3cc(OCc4ccccc4C(F)(F)F)c(C(N)=O)s3)c2cc1OC (10 µM)
1: [1] | [3]
0: all other assays above

COc1ccc(COc2ccc(Cc3cnc(N)nc3N)cc2OC)cc1 (10 µM)
0: all assays above

CC(C)(/C=C(\C#N)C(=O)N1CCC[C@@H](n2nc(-c3ccc(Oc4ccccc4)cc3F)c3c(N)ncnc32)C1)N1CCN(C2COC2)CC1 (2.5 µM)
0: all assays above

CNC(=O)c1cccc(-c2ccc3c(N4CCOC[C@@H]4C)nc(N4CCOC[C@@H]4C)nc3n2)c1 [Vistusertib] (2.5 µM)
0: [2] | [3] | [6] | [10] | [13] | [18]
3: [4] | [12] | [14] | [16]
5: [7]
4: all other assays above

COc1cc(C(=O)NC2CCN(C)CC2)ccc1Nc1ncc2c(n1)N(C1CCCC1)CC(F)(F)C(=O)N2C (10 µM)
0: all assays above

O=C(NOC[C@H](O)CO)c1ccc(F)c(F)c1Nc1ccc(I)cc1F (2.5 µM)
0: all assays above

COc1ccc(Oc2cc(NCCC(F)(F)F)c3ncc(-c4ccc(C(=O)NC5CC5)c(C)c4)n3n2)c(F)c1F (2.5 µM)
0: all assays above

CC(C)C(=O)Nc1ncc(-c2cc(C(F)F)nn2-c2c(Cl)cccc2Cl)s1 (10 µM)
5: [14]
not listed: [19] | [20]
0: all other assays above

NC(=O)c1ccc2nc(-c3ccc(Oc4ccc(Cl)cc4)cc3)[nH]c2c1 (10 µM)
0: all assays above

CC(C)(C#N)c1ccc(N2C(=O)OCc3cnc4ccc(-c5cnc6ccccc6c5)cc4c32)cc1 (2.5 µM)
5: [14]
0: all other assays above

CC1(C)CC=C(c2nc(C3CC(C)(C)OC(C)(C)C3)ccc2NC(=O)c2nc(C#N)c[nH]2)CC1 [Edicotinib] (2.5 µM)
0: all assays above

CNC(=O)c1cccc2cc(Oc3ccnc4cc(OCC5(N)CC5)c(OC)cc34)ccc12 [Lucitanib] (10 µM)
0: all assays above

— the supplement of paper PMC12823440, “Inhibitors supercharge kinase turnover through native proteolytic circuits” (Nature, 2025)
